According to publication PMC6136811:
These are yes or no findings as the source states them, for the method shown. Binding seen in cells or lysates may run through a third protein. Some entries that bind do so weakly or less than the wild type.

By UniProt entry, the sequences of proteins in these tests, tags left out. Where a name states a change or a piece, a line headed by the entry shows the natural chain unless it says otherwise.
UniProt O43683: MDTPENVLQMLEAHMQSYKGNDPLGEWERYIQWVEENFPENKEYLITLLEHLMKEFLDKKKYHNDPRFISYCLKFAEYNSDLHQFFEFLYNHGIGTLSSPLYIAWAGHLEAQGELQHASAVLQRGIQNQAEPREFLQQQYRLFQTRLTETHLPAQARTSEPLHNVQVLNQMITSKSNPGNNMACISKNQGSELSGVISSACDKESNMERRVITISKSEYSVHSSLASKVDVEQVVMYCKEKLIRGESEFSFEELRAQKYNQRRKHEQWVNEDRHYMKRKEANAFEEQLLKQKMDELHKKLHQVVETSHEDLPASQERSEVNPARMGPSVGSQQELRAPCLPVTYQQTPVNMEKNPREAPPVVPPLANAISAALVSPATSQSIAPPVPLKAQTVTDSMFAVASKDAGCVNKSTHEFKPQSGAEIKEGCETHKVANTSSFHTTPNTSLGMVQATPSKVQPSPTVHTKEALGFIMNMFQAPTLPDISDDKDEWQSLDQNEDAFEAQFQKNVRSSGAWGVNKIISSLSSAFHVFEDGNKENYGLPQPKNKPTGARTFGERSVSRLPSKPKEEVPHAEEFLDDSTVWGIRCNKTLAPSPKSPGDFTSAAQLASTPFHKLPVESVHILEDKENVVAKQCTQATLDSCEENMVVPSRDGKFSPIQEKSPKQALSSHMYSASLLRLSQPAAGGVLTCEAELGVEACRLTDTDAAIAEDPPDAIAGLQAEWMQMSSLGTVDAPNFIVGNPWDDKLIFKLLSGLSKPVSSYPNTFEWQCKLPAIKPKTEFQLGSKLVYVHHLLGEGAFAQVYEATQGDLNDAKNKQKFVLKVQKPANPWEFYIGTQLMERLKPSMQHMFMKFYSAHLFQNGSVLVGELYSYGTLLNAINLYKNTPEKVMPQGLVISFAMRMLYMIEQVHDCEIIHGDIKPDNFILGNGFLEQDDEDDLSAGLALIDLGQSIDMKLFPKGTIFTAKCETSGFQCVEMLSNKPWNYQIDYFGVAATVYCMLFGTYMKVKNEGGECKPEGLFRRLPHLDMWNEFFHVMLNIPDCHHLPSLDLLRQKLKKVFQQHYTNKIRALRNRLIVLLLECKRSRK
UniProt Q9QR71: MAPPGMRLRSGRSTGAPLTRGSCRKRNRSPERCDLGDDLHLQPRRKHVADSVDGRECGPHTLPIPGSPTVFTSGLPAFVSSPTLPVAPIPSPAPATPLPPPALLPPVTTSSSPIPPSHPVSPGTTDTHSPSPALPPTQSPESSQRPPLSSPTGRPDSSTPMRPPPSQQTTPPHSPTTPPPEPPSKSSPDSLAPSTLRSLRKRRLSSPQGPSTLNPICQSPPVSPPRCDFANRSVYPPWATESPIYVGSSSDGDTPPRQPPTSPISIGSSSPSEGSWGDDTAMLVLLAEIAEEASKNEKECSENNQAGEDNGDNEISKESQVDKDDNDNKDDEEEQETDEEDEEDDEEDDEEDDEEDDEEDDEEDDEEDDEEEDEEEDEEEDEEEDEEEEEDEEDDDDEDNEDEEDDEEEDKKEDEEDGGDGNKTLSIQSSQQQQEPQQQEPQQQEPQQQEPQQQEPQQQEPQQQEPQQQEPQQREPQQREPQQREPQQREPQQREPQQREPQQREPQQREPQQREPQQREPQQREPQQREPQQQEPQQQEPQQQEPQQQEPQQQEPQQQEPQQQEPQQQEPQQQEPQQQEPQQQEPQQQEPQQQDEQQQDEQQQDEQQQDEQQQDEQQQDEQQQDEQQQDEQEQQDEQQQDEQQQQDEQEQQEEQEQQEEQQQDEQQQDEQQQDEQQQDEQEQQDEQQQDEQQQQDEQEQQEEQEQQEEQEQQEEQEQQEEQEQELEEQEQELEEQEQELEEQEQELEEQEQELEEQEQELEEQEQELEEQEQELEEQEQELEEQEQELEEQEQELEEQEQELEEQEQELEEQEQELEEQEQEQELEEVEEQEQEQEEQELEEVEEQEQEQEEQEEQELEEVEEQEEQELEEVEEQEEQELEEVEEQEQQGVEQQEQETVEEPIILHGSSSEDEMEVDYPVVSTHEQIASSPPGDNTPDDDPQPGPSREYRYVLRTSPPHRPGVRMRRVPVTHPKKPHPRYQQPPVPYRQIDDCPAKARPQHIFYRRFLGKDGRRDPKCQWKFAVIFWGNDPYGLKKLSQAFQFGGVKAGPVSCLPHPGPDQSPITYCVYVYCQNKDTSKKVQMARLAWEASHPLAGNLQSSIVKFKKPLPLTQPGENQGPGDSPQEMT

How the values were obtained:
[1] = target: Bub1 (UniProt O43683); experiment: co-IP; reverse co-IP: HEK293 transfected with Bub1 and EQ, pRich or NNLS; IP with GFP antibody, western blot; cells treated with MG132 (20 uM) for 12 h before harvest
[2] = target: Bub1 (UniProt O43683); experiment: co-IP; HEK293 transfected with Bub1 and LANA truncations, lysed after 48 hours; IP with 2 ug Myc antibody, western blot; cells treated with MG132 (20 uM) for 12 h before harvest
[3] = target: Bub1 (UniProt O43683); experiment: co-IP; HEK293 transfected with indicated plasmids (with or without LANA, with or without NNLS, increasing amounts of NNLS plasmid), lysed after 48 hours; IP with Bub1 antibody, western blot

| Substance | binding [1] | binding [2] | binding [3] |
| --- | --- | --- | --- |
| NNLS domain of LANA (N-terminal nuclear localization sequence domain, 1-87 aa) (from UniProt Q9QR71 1-87) (domain or fragment) | binds | binds |  |
| LANA (KSHV latency-associated nuclear antigen, ORF73), full length (from UniProt Q9QR71 1-1129) |  |  | binds |
